Construct, isoform or probe ends are uncertain for at least one entry. At least one result comes from cells or an extract, where the contact may be indirect. At least one verdict rests on a figure or table, not on a statement of the authors.
Biological target: SEB-1 (native, identified by MS) (Neurospora crassa) (UniProt Q7SH58)
Experiment: pull-down, MS identification
Settings: 5'-biotin on strand 1; protein in an extract; residues 1-575; label: biotin

GTAATACGACTCTTCAAGGGGGATTCAAGGGGGAT (double strand) [bioSTRE1-1F/STRE1-2R]
binding result: binds

— publication PMC4856084
